In PubChem BioAssay AID2685 (National Center for Advancing Translational Sciences (NCATS), 2010) one finds cell number change and AC50 data, which are given here for 60 molecules.

The assay can be described thus: qHTS Assay for Lipid Storage Modulators in Drosophila S3 Cells.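 For cell number change: cells counted by Cell Tracker Red CMTPX staining in the red channel.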 The note with it: BODIPY lipid droplet fluorescence, 18-24 h; for cell number change: measured here: cell count max response, cells fed with added oleic acid. In a few lines: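 Drosophila S3 cells loaded with oleic acid (400 uM, as added) and compounds at several concentrations; lipid droplets imaged by 488-nm laser-scanning cytometry, 500–530 nm intensity and object ratio to cell channel. Percent activity normalized to 20 uM Triacsin C.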

[1] abbreviates: measured here: lipid fluorescence (Fed channel) AC50, cells fed with added oleic acid.
Setting [2] is: measured here: cell number channel AC50, cells fed with added oleic acid.

Some of the results follow. These are further read-outs of the screen, such as a control signal, another cell line or another target. No call is given for them. Compounds called inactive in the main read-out are mostly missing here. Potencies come from curve fits of mixed quality, noted in brackets.

Consider `Cc1nn(C)cc1CNC(=O)c1cnn2c(C(F)F)cc(C3CC3)nc12`, for which the cell number change was -28.1%. Moreover, under setting [1], the AC50 is 2.59 µM [rising, full curve].

Regarding `N#C/C(=C\c1ccc(N2CCOCC2)o1)C(=O)N1CCOCC1`, the AC50 reads like this: under setting [2], 2.31 µM [falling, partial curve]; under setting [1], 6.51 µM [rising, single point].

In the case of `C=CCn1c(SCC(=O)NC2CCS(=O)(=O)C2)nnc1-c1ccncc1` (stereo unspecified), the cell number change is -9.77%. For the same molecule, the AC50 under setting [2] was 0.731 µM [falling, single point].

On to `O=S(=O)(c1ccc(-c2cnc(C3CC3)o2)cc1)N1CCN(c2ccccc2)CC1`, for which the cell number change is -22.6%. For the same molecule, the AC50 under setting [1] is 32.6 µM [falling, single point].

In the case of `CC(=O)c1ccc(NC(=O)CN2C(=O)COc3ccc(Cl)cc32)cc1`, the cell number change worked out at 24.6%. The AC50 under setting [1] was 1.46 µM [rising, full curve, poor fit].

On to `COc1cccc(C2CCCN2Cc2nc(CCC(C)C)no2)c1` (stereo unspecified), for which the cell number change was 34.6%. In addition, the half-maximal activity concentration (AC50) under setting [2] is 5.8 µM [rising, partial curve].

Regarding `Cn1c(=O)c2c(SCC(=O)N3CCCC3)nc(CC(C)(C)C)nc2n(C)c1=O`, the cell number change was -18.7%. Moreover, under setting [2], the AC50 is 2.31 µM [falling, partial curve, poor fit].

In the case of `O=C(Nc1ccc([N+](=O)[O-])cc1)C(Cc1ccccc1)N1C(=O)c2cccc3cccc(c23)C1=O` (stereo unspecified), the cell number change stood at 75.7%. Under setting [2], the AC50 was 29.1 µM [rising, single point]. The AC50 under setting [1] is 0.651 µM [falling, full curve].

In the case of `Cc1ccc(-c2cn(-c3ccccc3)c(SCC(N)=O)n2)cc1C`, the cell number change was found to be 19.9%. Under setting [1], the AC50 is 5.8 µM [rising, full curve].

`O=[N+]([O-])c1cccc(C2=NCCC(c3ccccc3)O2)c1` (stereo unspecified): the cell number change worked out at 4.62%. Moreover, the AC50 under setting [1] is 14.6 µM [rising, partial curve].

For the molecule `COc1ccc(CNC(=O)c2cc(-c3cccs3)on2)cc1`, the cell number change worked out at 9.97%. The AC50 under setting [1] was 5.8 µM [rising, partial curve].

`CCn1c2ccccc2c2cc(NC(=O)c3cccc(OC)c3)ccc21`: the cell number change was 58.4%. The AC50 under setting [2] was 1.3 µM [rising, full curve]. Besides, the AC50 under setting [1] is 1.64 µM [rising, full curve].

`CC(=O)OC1OCCOC1NC(=S)Nc1ccc(C)cc1` (stereo unspecified): the cell number change was -0.916%. Besides, the AC50 under setting [1] was 6.51 µM [rising, single point].

For the molecule `CN(C)S(=O)(=O)c1ccc(C(=O)OCc2ccc(C#N)cc2)cc1`, the cell number change turned out to be 4.74%. Moreover, under setting [1], the AC50 was 29.1 µM [falling, single point].

On to `Cc1ccc(NC(=O)C2CCCNC2=O)nc1` (stereo unspecified), for which the cell number change is -6.98%. Under setting [1], the AC50 is 6.51 µM [falling, single point].

For the molecule `O=C(CCc1ccc(S(=O)(=O)N2CCOCC2)cc1)N/N=C/c1ccc(O)c(O)c1O`, the cell number change was 5.64%. Under setting [1], the AC50 is 1.16 µM [rising, full curve, poor fit].

Regarding `CCCS(=O)(=O)c1nc(S(=O)(=O)c2ccc(C)cc2)c(N2CCCC(C)C2)s1` (stereo unspecified), under setting [1], the AC50 is 8.2 µM [falling, partial curve].

For the molecule `CC(C)(Oc1ccc(Cl)cc1)C(=O)NC1CC1`, the cell number change amounted to 2.3%. For the same molecule, the AC50 under setting [1] is 23.1 µM [falling, partial curve, poor fit].

As for `O=C1NCCCC1C(=O)N/N=C/c1ccc([N+](=O)[O-])cc1` (stereo unspecified), the cell number change was determined as 28.4%. In addition, the AC50 under setting [1] was 6.51 µM [falling, single point].

Consider `COc1ccc(N(C(=O)c2snc(C(N)=O)c2N)C(C(=O)NC2CCCC2)c2ccc(C)o2)c(OC)c1` (stereo unspecified), for which the cell number change turned out to be 3.04%. For the same molecule, the AC50 under setting [1] was 6.51 µM [rising, single point].

Turning to `CN(CC(=O)Nc1ccc(F)cc1)C(=O)CN1C(=O)c2cccc([N+](=O)[O-])c2C1=O`, the cell number change is -0.877%. Also, under setting [1], the AC50 was 29.1 µM [rising, single point].

On to `c1cc[n+](CCC[n+]2ccccc2)cc1`, for which the cell number change came to 17.1%. In addition, the AC50 under setting [1] was 14.6 µM [rising, partial curve].

In the case of `CCC(=O)Nc1c(C)nn(-c2ccc(C)c(C)c2)c1C`, the cell number change was 21%. The AC50 under setting [1] is 29.1 µM [rising, single point].

Take `Cn1c(C(O)c2ccc(Br)cc2)nc(Cl)c1Cl` (stereo unspecified): the cell number change is -24.9%.

On to `O=C(CCl)NCCCCCCCCCNC(=O)CCl`, for which the cell number change was -17.3%. In addition, the AC50 under setting [1] was 4.61 µM [falling, full curve].

`O=C(CCCn1cncn1)N1CCCC(N2CCN(c3ccc(F)cc3)CC2)C1` (stereo unspecified): the cell number change turned out to be 8.8%.

For the molecule `NCCCSC1=NCCCN1`, the cell number change is -8.86%. The AC50 under setting [1] is 29.1 µM [falling, single point].

With `Cc1c(C(=O)NC2CC2)oc2ccc(S(=O)(=O)N3CCCCCC3)cc12`, the cell number change was -30%. Further, under setting [2], the AC50 is 0.731 µM [falling, full curve, poor fit]. Besides, the AC50 under setting [1] is 0.731 µM [rising, full curve].

As for `CCOc1ccccc1N1CCN(Cc2cnc(-c3ccccc3)[nH]2)CC1`, the cell number change was -24.9%. Under setting [1], the AC50 is 7.31 µM [falling, partial curve].

Consider `Cc1ccc(CNS(=O)(=O)NCc2ccc(Cl)cc2)cc1`, for which the cell number change came to 2.45%.

For the molecule `O=c1[nH]c2ccccc2n1CCCN1CCN(C(c2ccccc2)c2ccccc2)CC1`, the cell number change is -0.308%. In addition, the AC50 under setting [1] is 0.00731 µM [rising, full curve, poor fit].

On to `COC(=O)c1ccccc1NCC(=O)c1ccc(OC)cc1`, for which the cell number change is -12.4%. Besides, the AC50 under setting [1] is 6.51 µM [falling, single point].

As to `Cc1cc(NC(=O)Nc2cc(F)ccc2F)no1`, the cell number change was -10.9%. Also, the AC50 under setting [1] is 0.231 µM [rising, full curve, poor fit].

In the case of `CCCN(CCC)S(=O)(=O)c1ccc(C(=O)Nc2cc3oc4ccccc4c3cc2OC)cc1`, the cell number change is -8.67%. The AC50 under setting [2] was 0.461 µM [rising, partial curve, poor fit]. For the same molecule, the AC50 under setting [1] is 16.4 µM [falling, partial curve].

For the molecule `Cc1ccc(NC(=O)C2CCCN2c2nn3c(=O)cc(C)nc3s2)cc1` (stereo unspecified), the cell number change came to 17.3%.

`O=C(Nc1ccccc1-c1nc2ccccc2s1)c1ccc(Br)o1`: the cell number change came to 87.4%. The AC50 under setting [2] is 0.164 µM [rising, full curve, poor fit]. In addition, the AC50 under setting [1] was 0.651 µM [rising, full curve].

`CCOC(=O)c1oc2cc(O)cc(C)c2c(=O)c1-c1cscn1`: the cell number change was -15.2%. Besides, the concentration at half-maximal activity (AC50) under setting [1] was 5.8 µM [rising, single point].

As for `COC(=O)c1[nH]c2cccc(C)c2c1NC(=O)CN1CCN(C(=O)c2ccco2)CC1`, the cell number change is -9.16%. The AC50 under setting [1] is 0.116 µM [rising, full curve].

As to `Cc1ccc(CS(=O)(=O)CCC(=O)NCCC(C)C)cc1`, the cell number change was -13.7%.

For `COc1cc(NC(=O)CCCNC(=O)Cn2cnc3sc4c(c3c2=O)CCCC4)cc(OC)c1OC`, the cell number change was -6.41%. Under setting [1], the AC50 is 6.51 µM [rising, single point].

For the molecule `C/C=C/c1ccc(OCCOc2ccc(C=O)cc2)c(OC)c1`, the cell number change came to 4.6%. Also, under setting [1], the AC50 is 9.2 µM [rising, partial curve, poor fit].

On to `CC1(C)Oc2ccc(C(=O)NNC(=O)Nc3ccccc3)cc2NC1=O`, for which the cell number change was 2.56%.

In the case of `O=S(=O)(c1ccccc1)c1ccccc1/C=N\O`, the cell number change was -33.5%. For the same molecule, under setting [2], the AC50 is 0.184 µM [falling, full curve, poor fit]. Further, the AC50 under setting [1] was 29.1 µM [falling, single point].

In the case of `CCc1nn(CC(=O)Nc2cc(C)ccc2C)c(=N)s1`, the cell number change was 60%. For the same molecule, the AC50 under setting [2] is 2.06 µM [rising, full curve]. Under setting [1], the AC50 is 2.59 µM [rising, partial curve].

As for `CN(C)c1ccc(NC(=O)C2CCCN(S(=O)(=O)c3ccccc3)C2)cc1` (stereo unspecified), the cell number change was -13.4%. In addition, the AC50 under setting [2] is 0.517 µM [falling, single point].

For `CCC(=O)Nc1ccc(C(=O)NNC(=O)COc2cc(C)ccc2C)cc1`, the cell number change came out at 39.1%. Further, the AC50 under setting [2] was 4.11 µM [rising, full curve]. Further, the AC50 under setting [1] was 1.84 µM [rising, partial curve].

Consider `Cc1ccc2c(c1)cc(CN(Cc1ccco1)C(=O)N1CCOCC1)c1nnnn12`, for which the cell number change is -28.9%. Also, the AC50 under setting [1] was 20.6 µM [falling, single point].

`CCCCn1ccnc1C(=O)c1cc(S(=O)(=O)N2CCOCC2)ccc1C`: the cell number change stood at 68%. In addition, under setting [2], the AC50 is 7.31 µM [rising, partial curve]. Besides, the AC50 under setting [1] is 6.51 µM [rising, single point].

As for `CCOc1cc(-c2noc(CCC(=O)NC3CCCCC3)n2)ccc1OC`, the cell number change is -24.8%. Also, under setting [1], the AC50 was 6.51 µM [falling, single point].

As to `COc1ccccc1COC(=O)CN1C(=O)NC2(CCCCC2C)C1=O` (stereo unspecified), the cell number change came to 4.82%.

As for `COc1ccc(-c2nc(CS(=O)(=O)CC(=O)Nc3cccc(C(C)=O)c3)c(C)o2)cc1`, the cell number change was -13.3%. Besides, under setting [2], the AC50 is 7.31 µM [falling, partial curve].

As to `N#Cc1c(NC(=S)NC(=O)C2CCCC2)sc2c1CCCCC2`, the cell number change is -17.5%. The AC50 under setting [1] is 32.6 µM [falling, single point].

Turning to `CCCc1cc(=O)[nH]c(SCC(=O)c2ccc3c(c2)OCCO3)n1`, the cell number change worked out at 19.4%. Moreover, under setting [1], the AC50 was 25.9 µM [rising, partial curve, poor fit].

With `Cc1cccc(C)c1NC(=O)COC(=O)c1cc[n+]([O-])cc1`, the cell number change came to 0.549%. For the same molecule, under setting [1], the AC50 is 29.1 µM [rising, single point].

Turning to `CC(O)c1c(OCc2ccccc2)ncnc1OCc1ccccc1` (stereo unspecified), the cell number change is -40.1%. For the same molecule, the AC50 under setting [2] was 16.4 µM [falling, single point].

`Cc1ccc(S(=O)(=O)N2CCN(c3nc(CN4CCCC4)nc4sc(C)c(C)c34)CC2)cc1`: the cell number change is -1.66%. Further, the AC50 under setting [2] is 1.16 µM [falling, full curve, poor fit]. For the same molecule, under setting [1], the concentration at half-maximal activity (AC50) is 1.3 µM [falling, partial curve].

For `Cc1nc2ccc(S(=O)(=O)NCC(=O)Nc3cccc(F)c3)cc2s1`, the cell number change came to 5.56%. For the same molecule, the AC50 under setting [1] is 4.11 µM [falling, single point].

Turning to `COc1ccccc1NC(=S)N/N=C/c1ccc(O)cc1`, the cell number change worked out at 8.36%. Besides, the AC50 under setting [1] is 16.4 µM [rising, partial curve].

On to `Cc1ccc(C2(c3ccccc3)NC(=O)N(CC(=O)NCc3ccccc3)C2=O)cc1C` (stereo unspecified), for which the cell number change was -24.3%. The concentration at half-maximal activity (AC50) under setting [1] was 0.58 µM [falling, partial curve, poor fit].

In the case of `N=c1c(C(=O)NC2CCCCC2)cc2c(=O)n3ccccc3nc2n1CC1CCCO1` (stereo unspecified), the AC50 under setting [1] was 5.17 µM [falling, single point].

Usually AC50 stands for the concentration giving half of the maximal activity seen. The low end stands for activity at low concentration, the high end for activity only at high concentration.
